Measurements: patent publication US8552166, “High-affinity nucleic acid aptamers against sclerostin protein” (The University of Hong Kong)
Where a protein sequence is shown, tags need not be part of it. For some of these results: Construct, isoform or probe ends are uncertain for at least one entry.

Experiments:
[1] = molecular target: T1, Sclerostin (SOST) (Mus musculus) (UniProt Q99P68); experiment: SELEX; settings: isolated after 15 rounds, purified recombinant protein, protein details: GST fusion (pGEX-4T1, E. coli BL21(DE3)), single-stranded DNA
T1 sequence (looked up): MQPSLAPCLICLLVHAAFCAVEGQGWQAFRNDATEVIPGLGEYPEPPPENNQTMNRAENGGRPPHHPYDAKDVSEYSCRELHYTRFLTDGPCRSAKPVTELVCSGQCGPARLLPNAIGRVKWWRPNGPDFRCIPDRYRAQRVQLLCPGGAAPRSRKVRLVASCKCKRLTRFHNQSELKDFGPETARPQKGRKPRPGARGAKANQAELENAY

Sclerostin (SOST) = molecular target: T2, Sclerostin (SOST) (UniProt Q99P68); experiment: activity in cells; settings: 3' inverted thymidine (idT); TOPflash Wnt3a reporter in MC3T3-E1; blocks sclerostin antagonism dose-dependently 0.1-1.5 uM, saturated at 1.5 uM; protein in cells; protein details: expression vector co-transfected in MC3T3-E1 cells; single-stranded DNA; variant of Scl 2
T2 sequence (looked up, limits assumed): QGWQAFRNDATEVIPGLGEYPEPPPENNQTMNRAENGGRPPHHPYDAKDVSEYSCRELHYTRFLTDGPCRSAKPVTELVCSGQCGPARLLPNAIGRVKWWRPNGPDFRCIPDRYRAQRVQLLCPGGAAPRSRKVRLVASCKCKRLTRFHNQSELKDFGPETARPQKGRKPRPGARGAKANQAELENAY

TTCTGTCACATGTGGGGGGGGGGGTGGGTT [Scl 7]
selection result ([1]; listing SEQ 8 differs from sequence printed in text): selected

TTGCGCGTTAATTGGGGGGGTGGGTGGGTT [3' InT Scl 2]
functional effect of the aptamer (Sclerostin (SOST)): active

TGCCTTGTTATTGTGGTGGGCGGGTGGGAC [Scl 3]
selection result ([1]; also tested by ELONA at 50 nM): selected

GGGGGGGGTGGGGTGGGTCAATATTCTCGTC [Scl 4]
selection result ([1]; also tested by ELONA at 50 nM): selected

TTGCGCGTTAATTGGGGGGGTGGGTGGGTT [Scl 5]
selection result ([1]; printed sequence identical to Scl 2): selected

CCCTCCAAAGCGGGGGGGGTGGGTGGGCAG [Scl 6]
selection result [1]: selected

GTTTCCAAAGCCGGGGGGGTGGGATGGGTT [Scl 1]
selection result ([1]; also tested by ELONA at 50 nM): selected
